Consider seven substances from PMC10719366.

Sequences of proteins named here, by UniProt entry; tags and fusion partners are left off. A change or cut given only in a name is not applied to a line headed by its entry. A line that says so, or that is headed by a name, gives the form on record, which may keep a tag or linker. Residues count along the entry.
UniProt P31421, residues 19-872: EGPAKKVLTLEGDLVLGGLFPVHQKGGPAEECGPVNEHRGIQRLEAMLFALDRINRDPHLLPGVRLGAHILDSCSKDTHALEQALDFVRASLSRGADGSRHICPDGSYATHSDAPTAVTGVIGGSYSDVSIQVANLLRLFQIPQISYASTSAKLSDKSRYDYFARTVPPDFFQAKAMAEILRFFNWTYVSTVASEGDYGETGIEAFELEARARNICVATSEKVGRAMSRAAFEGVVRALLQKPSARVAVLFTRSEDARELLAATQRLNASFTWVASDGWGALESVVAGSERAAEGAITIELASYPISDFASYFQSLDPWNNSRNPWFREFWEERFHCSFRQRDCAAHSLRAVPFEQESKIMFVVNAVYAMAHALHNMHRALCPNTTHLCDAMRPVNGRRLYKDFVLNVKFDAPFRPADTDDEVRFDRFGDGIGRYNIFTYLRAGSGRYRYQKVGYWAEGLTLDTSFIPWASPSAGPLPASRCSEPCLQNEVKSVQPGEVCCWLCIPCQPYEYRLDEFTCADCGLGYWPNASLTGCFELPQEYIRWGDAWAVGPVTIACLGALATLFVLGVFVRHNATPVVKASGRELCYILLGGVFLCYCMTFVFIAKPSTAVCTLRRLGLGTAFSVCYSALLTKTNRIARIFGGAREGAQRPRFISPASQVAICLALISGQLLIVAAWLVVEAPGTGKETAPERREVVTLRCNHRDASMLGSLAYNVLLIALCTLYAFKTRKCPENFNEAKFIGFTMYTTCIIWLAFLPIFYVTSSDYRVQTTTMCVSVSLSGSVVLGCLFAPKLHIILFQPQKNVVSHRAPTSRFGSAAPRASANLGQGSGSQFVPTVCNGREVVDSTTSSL
SNAP-mGluR4 (P31423, residues 33-912): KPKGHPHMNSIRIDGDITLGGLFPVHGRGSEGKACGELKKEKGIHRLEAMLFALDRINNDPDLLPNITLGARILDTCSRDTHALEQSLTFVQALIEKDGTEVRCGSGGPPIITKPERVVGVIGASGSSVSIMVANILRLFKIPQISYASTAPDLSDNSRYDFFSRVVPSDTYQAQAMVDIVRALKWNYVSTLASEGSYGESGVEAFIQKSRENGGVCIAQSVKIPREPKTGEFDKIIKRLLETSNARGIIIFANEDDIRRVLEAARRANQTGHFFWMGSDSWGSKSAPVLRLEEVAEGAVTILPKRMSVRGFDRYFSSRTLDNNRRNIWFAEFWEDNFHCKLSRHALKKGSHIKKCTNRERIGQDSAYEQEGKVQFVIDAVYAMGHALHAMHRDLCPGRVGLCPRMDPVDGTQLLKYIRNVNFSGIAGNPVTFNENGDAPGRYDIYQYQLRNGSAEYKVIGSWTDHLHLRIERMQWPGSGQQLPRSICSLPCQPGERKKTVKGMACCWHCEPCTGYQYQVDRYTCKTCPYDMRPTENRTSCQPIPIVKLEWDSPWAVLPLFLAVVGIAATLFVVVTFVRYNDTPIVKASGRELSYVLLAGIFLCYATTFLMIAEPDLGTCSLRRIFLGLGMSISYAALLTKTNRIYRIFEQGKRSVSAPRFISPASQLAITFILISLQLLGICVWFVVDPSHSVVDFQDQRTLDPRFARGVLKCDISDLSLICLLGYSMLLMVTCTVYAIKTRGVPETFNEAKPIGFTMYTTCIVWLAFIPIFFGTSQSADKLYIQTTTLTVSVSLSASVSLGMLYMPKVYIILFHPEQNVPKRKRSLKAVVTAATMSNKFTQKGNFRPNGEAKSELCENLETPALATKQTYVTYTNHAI
SNAP-mGluR4(G131T, G137T, G140E) (P31423, form named): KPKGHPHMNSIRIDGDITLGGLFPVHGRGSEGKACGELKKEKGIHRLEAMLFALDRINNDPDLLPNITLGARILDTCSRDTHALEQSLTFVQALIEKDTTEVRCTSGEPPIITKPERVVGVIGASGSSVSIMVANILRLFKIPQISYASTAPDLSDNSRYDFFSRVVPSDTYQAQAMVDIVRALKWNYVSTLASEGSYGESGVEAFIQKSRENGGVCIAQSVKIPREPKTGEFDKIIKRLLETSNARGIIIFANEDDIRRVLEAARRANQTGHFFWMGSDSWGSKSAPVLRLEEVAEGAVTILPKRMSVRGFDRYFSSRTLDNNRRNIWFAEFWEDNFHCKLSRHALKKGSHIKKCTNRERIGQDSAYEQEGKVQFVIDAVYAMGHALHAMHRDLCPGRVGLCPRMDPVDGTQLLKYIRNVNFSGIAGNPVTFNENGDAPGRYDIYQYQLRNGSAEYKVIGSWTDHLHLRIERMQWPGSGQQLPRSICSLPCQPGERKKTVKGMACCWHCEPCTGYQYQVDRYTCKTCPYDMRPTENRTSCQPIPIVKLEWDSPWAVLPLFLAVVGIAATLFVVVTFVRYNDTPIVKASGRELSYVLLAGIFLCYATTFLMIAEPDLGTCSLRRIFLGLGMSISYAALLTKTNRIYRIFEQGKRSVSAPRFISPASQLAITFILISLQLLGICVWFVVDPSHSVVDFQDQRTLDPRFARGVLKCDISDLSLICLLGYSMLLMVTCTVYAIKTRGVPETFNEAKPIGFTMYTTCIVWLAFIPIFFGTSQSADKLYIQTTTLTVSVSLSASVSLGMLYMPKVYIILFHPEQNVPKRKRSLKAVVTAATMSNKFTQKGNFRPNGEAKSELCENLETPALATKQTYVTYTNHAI
SNAP-mGluR7(T131G, T137G, E140G) (P35400, form named): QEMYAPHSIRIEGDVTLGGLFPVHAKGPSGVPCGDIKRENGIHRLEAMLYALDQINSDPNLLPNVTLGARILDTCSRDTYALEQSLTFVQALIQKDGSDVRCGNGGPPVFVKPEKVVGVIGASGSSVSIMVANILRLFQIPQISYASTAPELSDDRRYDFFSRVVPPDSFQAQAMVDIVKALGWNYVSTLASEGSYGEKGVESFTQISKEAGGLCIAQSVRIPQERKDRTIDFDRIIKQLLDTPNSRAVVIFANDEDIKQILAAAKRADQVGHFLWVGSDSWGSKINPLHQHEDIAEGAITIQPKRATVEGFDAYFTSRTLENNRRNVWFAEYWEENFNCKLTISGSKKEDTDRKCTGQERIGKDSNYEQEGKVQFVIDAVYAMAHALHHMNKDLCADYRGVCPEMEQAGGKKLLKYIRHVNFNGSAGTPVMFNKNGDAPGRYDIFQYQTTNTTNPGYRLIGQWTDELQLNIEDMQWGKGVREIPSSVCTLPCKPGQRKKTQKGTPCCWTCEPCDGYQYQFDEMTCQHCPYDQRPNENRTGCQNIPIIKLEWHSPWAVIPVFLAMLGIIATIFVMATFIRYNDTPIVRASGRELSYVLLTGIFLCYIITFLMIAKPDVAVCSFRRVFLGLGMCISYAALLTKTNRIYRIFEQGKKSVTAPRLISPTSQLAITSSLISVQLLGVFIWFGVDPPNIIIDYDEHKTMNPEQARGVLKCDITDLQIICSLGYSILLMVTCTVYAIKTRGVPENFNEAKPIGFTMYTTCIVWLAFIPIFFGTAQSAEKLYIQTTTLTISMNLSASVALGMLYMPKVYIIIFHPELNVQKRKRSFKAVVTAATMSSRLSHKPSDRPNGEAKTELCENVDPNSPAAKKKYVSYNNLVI
UniProt P70579, residues 34-908: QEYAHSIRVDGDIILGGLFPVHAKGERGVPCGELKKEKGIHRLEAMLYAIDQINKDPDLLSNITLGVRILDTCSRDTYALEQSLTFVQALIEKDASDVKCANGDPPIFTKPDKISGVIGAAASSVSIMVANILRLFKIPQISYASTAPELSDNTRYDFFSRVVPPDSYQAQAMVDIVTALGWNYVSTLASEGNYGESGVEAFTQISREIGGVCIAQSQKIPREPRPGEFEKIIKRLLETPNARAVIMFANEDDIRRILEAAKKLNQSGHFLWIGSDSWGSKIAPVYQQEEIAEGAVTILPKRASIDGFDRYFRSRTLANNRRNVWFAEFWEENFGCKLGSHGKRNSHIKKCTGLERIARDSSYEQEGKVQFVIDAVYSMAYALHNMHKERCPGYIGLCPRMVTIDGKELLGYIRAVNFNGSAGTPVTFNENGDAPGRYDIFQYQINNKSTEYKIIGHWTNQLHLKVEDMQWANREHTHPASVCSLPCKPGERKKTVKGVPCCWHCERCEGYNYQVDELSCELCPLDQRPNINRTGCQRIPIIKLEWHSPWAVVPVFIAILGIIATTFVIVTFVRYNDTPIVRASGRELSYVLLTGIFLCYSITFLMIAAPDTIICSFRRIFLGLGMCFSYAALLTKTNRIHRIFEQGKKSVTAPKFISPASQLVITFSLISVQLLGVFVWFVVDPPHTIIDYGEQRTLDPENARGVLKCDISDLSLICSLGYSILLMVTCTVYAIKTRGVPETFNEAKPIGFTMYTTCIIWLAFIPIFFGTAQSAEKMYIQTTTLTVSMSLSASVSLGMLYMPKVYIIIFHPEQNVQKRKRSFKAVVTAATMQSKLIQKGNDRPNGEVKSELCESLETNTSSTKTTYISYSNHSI

Results are given in words; binding and its absence hold for the method and conditions named. In cells and extracts the contact can be indirect. Some results given as binding are weak or reduced against the parent protein; the word gives no strength.

One experiment deals with CLIP-mGluR2 (rat) (UniProt P31421). Briefly: FRET or BRET; single-molecule FRET (TIRF) between a dye on the CLIP tag of mGluR2 and a dye on the SNAP tag of the co-expressed mGluR7 or mGluR4 subunit; receptors labelled on HEK293T cells, lysed in 1.2% IGEPAL, held on PEG-passivated coverslips by antibody; 0 to 100 mM glutamate, 1 uM LY379268 or 10 uM LSP4-2022. On the technique in general: Bioluminescence resonance energy transfer reports proximity on the nanometre scale.

In a further experiment the target is SNAP-mGluR4 (rat) (UniProt P31423). The experiment can be described thus: FRET or BRET; single-molecule FRET (TIRF) between donor and acceptor BG dyes on the SNAP tags of the two subunits of a homodimer; receptors labelled on HEK293T cells, lysed in 1.2% IGEPAL, held on PEG-passivated coverslips by anti-mGluR2, anti-mGluR7 or anti-HA antibody; imaging buffer pH 7.4 with 0.04% IGEPAL; 0 to 100 mM glutamate.

Experiment [1] deals with SNAP-mGluR7(mGluR4 residues 202–271) (rat) (UniProt P35400+P31423). The description is as above.
The next experiment concerns the target SNAP-mGluR8 (rat) (UniProt P70579). The experiment is described as above.
In the next experiment the target is SNAP-mGluR2 (rat) (UniProt P31421). The experiment is described as above.
For a further experiment, the target named is SNAP-mGluR7 (rat) (UniProt P35400). The experiment is described as above.

Consider “SNAP-mGluR4 (from UniProt P31423 33-912) (receptor)”, for which the binding entry in the experiment with CLIP-mGluR2 (rat) and in the experiment with SNAP-mGluR4 (rat) was “binds” in each case.
Take “SNAP-mGluR7(mGluR4 residues 202–271) (from UniProt P35400 35-201; P31423 202-271; P35400 274-915) (receptor)”: the binding result in experiment [1] is recorded as “binds”.
For “SNAP-mGluR8 (from UniProt P70579 34-908) (receptor)”, the binding result with SNAP-mGluR8 (rat) is on record as “binds”.
In the case of “SNAP-mGluR2 (from UniProt P31421 19-872) (receptor)”, the binding entry with SNAP-mGluR2 (rat) is listed as “binds”.
In the case of “SNAP-mGluR7 (from UniProt P35400 35-915) (receptor)”, the binding entry with CLIP-mGluR2 (rat) and with SNAP-mGluR7 (rat) was “binds” each time.
Consider “SNAP-mGluR7(T131G, T137G, E140G) (from UniProt P35400 35-915) (receptor)”, for which, in the experiment with CLIP-mGluR2 (rat), the binding entry is “binds”.
Consider “SNAP-mGluR4(G131T, G137T, G140E) (from UniProt P31423 33-912) (receptor)”, for which the binding result in the experiment with CLIP-mGluR2 (rat) was “binds”.
